This is an account of results in US11203613B2, “Peptidomimetic proteasome inhibitors” (CORNELL UNIVERSITY, priority 2017, dated 2021).

What is called IC50 is the concentration at which inhibition is half-maximal.

Molecules are shown by their SMILES. A number of entries come with more than one value. The other results are left out here. The source may hold further records. The records of an entry differ, and nothing given here explains why; dose, time, organism, isomer or construct need not be as stated for each record.

The target in the assay is Human Constitutive (Hu C-20S) β5 Active Subunit (Homo sapiens, UniProt P28074). The assay is described as follows: IC50 determination, human constitutive 20S proteasome β5c (suc-LLVY-AMC hydrolysis). The conditions noted are these: read-out: Hu c-20S IC50; Table 2; several values in a cell are repeat determinations. As to the method:
Experiments to determine IC50 values against β5i and β5c for compounds were carried out in 96-well plates. In brief, 1 μL of compound in a 3× series dilution in DMSO at concentration ranging from 100 μM-0.0017 μM were spotted to the bottom of a black 96-well plate with solid bottom. 100 μL of reaction buffer (20 mM THEPES, 0.5 mM EDTA, pH7.5, 0.1% BSA) containing enzyme (final concentration was 0.2 nM for c-20S, and 0.4 nM for i-20S) and substrate (25 μM for suc-LLVY-AMC for β5c and 15 μM for Ac-ANW-AMC) were dispensed into each well, and the plate was then spun at 1000× rpm for 1 minute and then shaked on a shaker for 1 minute. Time course of the hydrolysis of each well was followed by recording the fluorescence of product AMC (Ex 360 nm and Em 460 nm) on aSpectraMax M5 plate reader for 1.5-2 hours. Initial reaction velocity of each well was fit to adose-dependent inhibition equation using PRISM to determine the IC50. IC50S were determined only for β5i and β5c (Table 2). SDS was used as activator for both enzymes at concentration 0.02%.
In the case of `CC(C)CCC(=O)N[C@@H](CC(=O)N1CCCC[C@@H]1C)C(=O)N[C@@H](C)c1ncc(-c2ccc(F)cc2F)[nH]1`, the IC50 is 6.36, 9.66, 10.7, 8.73 µM. As to `C[C@H](NC(=O)[C@H](CC(=O)N1CCCC1)NC(=O)CCc1ccccc1)C(=O)NCc1cccc2cn[nH]c12` [CF-503390], the IC50 is 5.5 µM and 2.72 µM. As for `CC(C)CCC(=O)N[C@@H](CC(=O)N1CCC[C@@H]1c1ccccc1)C(=O)N[C@H](C)c1nc2ccccc2[nH]1` [CEN-49, N—((S)-1-(((R)-1-(1H-Benzo[d]imidazol-2-yl)ethyl)amino)-1,4-dioxo-4-((R)-2-phenylpyrrolidin-1-yl)butan-2-yl)-4-methylpentanamide], the IC50 was 8.96 µM and 50 µM. On to `CC(C)CCC(=O)N[C@@H](CC(=O)N1CCC[C@@H]1c1ccccc1)C(=O)N[C@@H](C)c1nc2ccccc2[nH]1`, for which the IC50 is 16.8, 13.7, 53.1, 9.3, 10.6, 50 µM. Consider `CC[C@H]1CCCCN1C(=O)C[C@H](NC(=O)C1CC1C(C)C)C(=O)N[C@@H](C)c1nc2c(F)cccc2[nH]1` (stereo partly drawn) [CEN-10, N—((S)-4-((S)-2-Ethylpiperidin-1-yl)-1-(((S)-1-(4-fluoro-1H-benzo[d]imidazol-2-yl)ethyl)amino)-1,4-dioxobutan-2-yl)-2-isopropylcyclopropane-1-carboxamide], for which the IC50 is 2.3 µM and 1.72 µM.
